# Test results: PubChem BioAssay AID1671190 (National Center for Advancing Translational Sciences (NCATS), 2021)
# Chains of the proteins cited; added tags and fusions are not shown. Lines headed by an entry give the natural chain unless they say otherwise; changes in a name come on top.
# UniProt P18054: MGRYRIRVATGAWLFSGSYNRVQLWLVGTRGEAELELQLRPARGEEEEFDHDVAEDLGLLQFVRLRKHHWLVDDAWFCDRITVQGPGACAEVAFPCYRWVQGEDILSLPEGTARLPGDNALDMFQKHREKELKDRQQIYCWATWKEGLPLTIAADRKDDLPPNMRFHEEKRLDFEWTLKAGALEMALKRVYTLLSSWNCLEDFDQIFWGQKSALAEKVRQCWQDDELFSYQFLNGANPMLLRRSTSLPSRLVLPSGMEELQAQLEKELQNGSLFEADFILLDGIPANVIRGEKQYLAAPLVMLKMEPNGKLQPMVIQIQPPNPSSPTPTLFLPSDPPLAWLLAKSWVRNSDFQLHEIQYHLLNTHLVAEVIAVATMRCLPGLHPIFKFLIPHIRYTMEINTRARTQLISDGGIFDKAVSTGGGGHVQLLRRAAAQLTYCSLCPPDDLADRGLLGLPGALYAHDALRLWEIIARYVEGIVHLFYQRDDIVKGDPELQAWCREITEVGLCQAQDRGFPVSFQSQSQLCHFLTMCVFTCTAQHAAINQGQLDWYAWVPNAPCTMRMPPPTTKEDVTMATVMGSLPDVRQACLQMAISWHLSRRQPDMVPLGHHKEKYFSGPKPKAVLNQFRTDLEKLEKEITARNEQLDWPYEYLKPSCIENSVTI
# Among all 580,000 compounds or so, about 6,100 (1.1%) were called active. Inconclusive means that the source gave no clear call. Such entries were picked first, then a sample of the others. Calls come from the whole dose curve; as a rule, active = well fitted inhibition curve with a large enough effect; inconclusive = small, poorly fitted or top-dose-only effect, or another doubt; inactive = no such curve, though single readings can be large or run the other way. Potencies beside an inconclusive call are fits to weak or partial responses and may not hold up.
# Biological target: Polyunsaturated fatty acid lipoxygenase ALOX12 (Homo sapiens) (UniProt P18054)
# Assay: Primary qHTS assay for inhibitors of human arachidonate 12S-lipoxygenase (ALOX12): Round 2
# Details: purified 12hLO, xylenol orange hydroperoxide absorbance; series mostly up to 108 µM
# Method in brief: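 Purified human 12hLO (150 nM final) in 25 mM Hepes, 0.01% Triton X-100, pH 7.0 was preincubated 15 min at room temperature with compound. Then 40 uM arachidonic acid was added, 30 min. Hydroperoxide was read by Fe-XO absorbance ratio 573/405 nm.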
# Potency is the fitted concentration of half-maximal effect.
row,SMILES,Potency
1,COc1ccc(CNCC(O)(c2ccccc2)c2ccc(Cl)cc2)cc1 (centres undefined),"inconclusive: 8.91 µM [inhibitor, partial curve, poor fit]"
2,Cc1cccc(C(=O)NNS(=O)(=O)c2ccc(F)cc2)c1O,"inconclusive: 1.41 µM [inhibitor, partial curve, poor fit]"
3,O=C(c1ccc2c(c1)OCO2)N(Cc1ccccc1)Cc1ccccc1,"inconclusive: 25.1 µM [inhibitor, partial curve, poor fit]"
4,Nc1nc(=S)c2ncn(C3OC(CO)C(O)C3O)c2[nH]1 (centres undefined),"inconclusive: 15.8 µM [inhibitor, partial curve, poor fit]"
5,Cc1nnc(SCC2=C(C(=O)O)N3C(=O)C(NC(=O)COc4ccccc4)C3SC2)s1 (centres undefined),"inconclusive: 20 µM [inhibitor, partial curve, poor fit]"
6,Cc1ccc(S(=O)(=O)CC(=O)c2ccc(Cl)cc2)cc1,inactive
7,COC(=O)c1ccc2nc(-c3ccc(C)cc3)c(Cc3ccc(OC)cc3C)n2c1,"inconclusive: 0.398 µM [inhibitor, full curve, poor fit]"
8,Cc1ccc(C(=O)C(C)OC(=O)c2c(C)noc2C)cc1C (centres undefined),"inconclusive: 89.1 µM [inhibitor, partial curve, poor fit]"
9,CCCc1nc2oc3ccccc3c(=O)c2c(=O)n1-c1ccc(C)cc1,inactive
10,CN(C)c1ccc(-c2noc([C@@H]3CCCN3Cc3nc4ccccc4n3C)n2)cn1,inactive
11,COc1ccc(-c2nc(SCC(=O)NCCCc3ccccc3)n[nH]2)cc1,"inconclusive: 12.6 µM [inhibitor, partial curve, poor fit]"
12,c1coc(-c2ccc3nncn3c2)c1,"inconclusive: 39.8 µM [inhibitor, partial curve]"
13,Cc1ccc2occ(CC(=O)Nc3ccc(S(N)(=O)=O)cc3)c2c1,"inconclusive: 126 µM [inhibitor, partial curve, poor fit]"
14,CCN(CC)CCCNC(=O)c1oc2c(c1C)-c1nn(Cc3ccc(Cl)cc3)cc1CC2,"inconclusive: 35.5 µM [inhibitor, partial curve, poor fit]"
15,Cn1cc(/C=C(\NC(=O)c2ccccc2)C(=O)NCCCn2ccnc2)c2ccccc21,"inconclusive: 0.141 µM [inhibitor, full curve, poor fit]"
16,COc1cccc(CN2CCN(C(=O)CC(C)C)CC2)c1,"inconclusive: 0.447 µM [inhibitor, full curve, poor fit]"
17,CCOc1ncccc1C(=O)Nc1ccc(Cl)c(S(=O)(=O)N2CCCC2)c1,inactive
18,Cc1onc(-c2c(Cl)cccc2Cl)c1COC(=O)c1ccc(Cl)cc1,"inconclusive: 79.4 µM [inhibitor, single point]"
19,CC(C)Oc1ccc(Nc2cc3[nH]c(-c4cccc(F)c4)cc3cn2)cc1,"inconclusive: 44.7 µM [inhibitor, partial curve, poor fit]"
20,CCCCCCN1N=C(C)C(C(=O)c2ccc(Cl)cc2)C1=O (centres undefined),"inconclusive: 89.1 µM [inhibitor, partial curve, poor fit]"
21,Cc1sc2ncn(Cc3noc(-c4cccs4)n3)c(=O)c2c1C,"inconclusive: 89.1 µM [inhibitor, partial curve, poor fit]"
22,COCCNC(=S)N/N=C/c1ccc(-c2ccc([N+](=O)[O-])cc2)o1,"inconclusive: 12.6 µM [inhibitor, full curve, poor fit]"

# Part of the list above, tab-delimited.
row	SMILES	Potency
12	c1coc(-c2ccc3nncn3c2)c1	inconclusive: 39.8 µM [inhibitor, partial curve]
21	Cc1sc2ncn(Cc3noc(-c4cccs4)n3)c(=O)c2c1C	inconclusive: 89.1 µM [inhibitor, partial curve, poor fit]

# Next part

row,SMILES,Potency
1,C[n+]1ccc(C(=O)Nc2ccccc2Cl)cc1,"inconclusive: 44.7 µM [inhibitor, partial curve, poor fit]"
2,COc1cc(NS(=O)(=O)c2ccc(NC(=O)COc3ccc(C)cc3)cc2)nc(OC)n1,inactive
3,CCCCOc1ccccc1C(=O)N1CCC(c2nc3ccccc3o2)CC1,inactive
4,Cc1ncoc1C(=O)Nc1ncc([N+](=O)[O-])s1,"inconclusive: 50.1 µM [inhibitor, partial curve, poor fit]"
5,COc1ccc(O)c(-c2[nH]ncc2C(=O)c2cccc(C)c2)c1,"inconclusive: 12.6 µM [inhibitor, partial curve, poor fit]"
6,O=C(O)CCC(=O)OCCc1ccccc1,inactive
7,O=C(Cc1ccccc1)NC1CCCc2c1[nH]c1ccccc21 (centres undefined),"inconclusive: 50.1 µM [inhibitor, partial curve, poor fit]"
8,N#CCCN1CCN(S(=O)(=O)c2cc(Cl)ccc2Cl)CC1,inactive
9,O=C(NCC(c1ccco1)S(=O)(=O)c1ccccc1)c1ccc2c(c1)OCO2 (centres undefined),"inconclusive: 2.24 µM [inhibitor, full curve, poor fit]"
10,CC(C)[C@@H](C(=O)N1CCNCC1)n1cc(CCO)nn1,"inconclusive: 1.58 µM [inhibitor, full curve]"
11,CCOc1ccccc1NC(=O)Nc1ccc(OC)nc1,"inconclusive: 39.8 µM [inhibitor, partial curve, poor fit]"
12,CC(C)(C)C1CCC(CN2C(Nc3ccccc3)=NC[C@@H]2Cc2ccccc2)CC1 (some centres undefined),"inconclusive: 70.8 µM [inhibitor, partial curve, poor fit]"
13,NC(=O)c1ccccc1NC(=S)NC(=O)CCc1ccccc1,"inconclusive: 50.1 µM [inhibitor, partial curve]"
14,O=C(Nc1cccc2c1CCCC2)c1ccc2ccccc2c1,inactive
15,CCNC(=S)Nc1ccc2ncoc2c1,"inconclusive: 28.2 µM [inhibitor, partial curve, poor fit]"
16,CN(C)Cc1nnc(C2CCN(C(=O)CCNS(C)(=O)=O)CC2)n1C,"inconclusive: 8.91 µM [inhibitor, full curve]"
17,Cc1cc(-n2nc3ccccc3n2)c(O)c([N+](=O)[O-])c1,"inconclusive: 1.41 µM [inhibitor, full curve, poor fit]"
18,COc1ccc(-c2nc3cc(NC(=O)COc4ccccc4)ccc3o2)cc1Cl,"inconclusive: 14.1 µM [inhibitor, full curve, poor fit]"
19,COCCN(Cc1cc2cc3c(cc2nc1Cl)OCO3)C(=O)c1ccc(C)cc1,inactive
20,O=C(NC(=S)NCc1ccc2c(c1)OCO2)c1ccccc1,active: 15.8 µM
21,C#Cc1cccc(NCC(=O)N2CCCCCCC2)c1,"inconclusive: 39.8 µM [inhibitor, partial curve, poor fit]"
22,Cc1c(-c2cn(C)c(=O)n3cc(COc4ccc(Cl)cc4)nc23)cnn1C,"inconclusive: 35.5 µM [inhibitor, full curve]"

row,SMILES,Potency
1,CCOc1ccc(NC(=O)CCS(=O)(=O)c2ccc3c(c2)CCCN3C(=O)CC)cc1,"inconclusive: 50.1 µM [inhibitor, partial curve, poor fit]"
2,CC(C)(C)C1CCc2nc(NC(=O)Cc3ccc(Cl)cc3)sc2C1 (centres undefined),"inconclusive: 50.1 µM [inhibitor, partial curve, poor fit]"
3,Cc1ccc(CN2CCN(/N=C/c3ccco3)CC2)c(C)c1,"inconclusive: 70.8 µM [inhibitor, partial curve, poor fit]"
4,Cc1cccc(NC(=O)C2CCCN(S(=O)(=O)c3c(C)noc3/C=C/N(C)C)C2)c1C (centres undefined),"inconclusive: 56.2 µM [inhibitor, partial curve, poor fit]"
5,NNc1nnc2c3cc(F)ccc3n(CCc3ccccc3)c2n1,"inconclusive: 44.7 µM [inhibitor, single point]"
6,COc1ccc2nc(NC(=O)c3nn(C(C)C)c(=O)c4ccccc34)sc2c1,inactive
7,O=[N+]([O-])c1ccccc1CN1C[C@H](O)C[C@H]1c1nc(-c2ccc(F)cc2)no1,active: 39.8 µM
8,O=C(Cc1ccc(-c2ccccc2)cc1)N1CC(COc2ccccc2)C2(C1)CN(C(=O)c1cn[nH]c1)C2 (centres undefined),inactive
9,N#CCOC(=O)c1c[nH]c2ccccc12,"inconclusive: 126 µM [inhibitor, single point]"
10,Cc1ccc(CN2CCN(C3CCN(C(=O)OC(C)(C)C)CC3)C(=O)C2=O)cc1,"inconclusive: 79.4 µM [inhibitor, partial curve, poor fit]"
11,O=C(CSc1cc(Cl)ccc1Cl)NCC(=O)Nc1ccc(F)c(F)c1F,"inconclusive: 56.2 µM [inhibitor, partial curve, poor fit]"
12,Cc1cccc(C(=O)Nc2ccc(C(=O)OCc3cc(=O)n4ccsc4n3)cc2)c1,"inconclusive: 50.1 µM [inhibitor, partial curve, poor fit]"
13,CCOC(=O)CC(NC(=O)Cn1nnc(-c2ccccc2C)n1)c1ccc(OC)cc1 (centres undefined),inactive
14,O=C(c1cc(-c2ccc(Cl)s2)nc2ccccc12)N1CCCC1,"inconclusive: 50.1 µM [inhibitor, single point]"
15,O=C(COc1ccccc1)Nc1sc2c(c1C(=O)NCc1cccnc1)CCCC2,"inconclusive: 141 µM [inhibitor, partial curve, poor fit]"
16,Cc1nc2c(cc(OCC(O)COc3ccc(C#N)cc3)c3ccsc32)s1 (centres undefined),"inconclusive: 28.2 µM [inhibitor, partial curve, poor fit]"
17,COCCNC(=O)/C(C#N)=C/c1ccc(OCc2ccccc2)cc1,"inconclusive: 35.5 µM [inhibitor, partial curve, poor fit]"
18,COc1ccc(C(=O)CN2C(=O)N(c3cc(C)cc(C)c3)S(=O)(=O)c3ccccc32)cc1,inactive
19,CC(=O)C1C(=O)CC(c2ccc(Cl)cc2)CC1=O (centres undefined),"inconclusive: 3.55 µM [inhibitor, full curve, poor fit]"
20,N/C(=N/OCc1cccc([N+](=O)[O-])c1)c1nonc1N,inactive

# Another view of 3 compounds above.
row | SMILES | Potency
3 | Cc1ccc(CN2CCN(/N=C/c3ccco3)CC2)c(C)c1 | inconclusive: 70.8 µM [inhibitor, partial curve, poor fit]
4 | Cc1cccc(NC(=O)C2CCCN(S(=O)(=O)c3c(C)noc3/C=C/N(C)C)C2)c1C (centres undefined) | inconclusive: 56.2 µM [inhibitor, partial curve, poor fit]
5 | NNc1nnc2c3cc(F)ccc3n(CCc3ccccc3)c2n1 | inconclusive: 44.7 µM [inhibitor, single point]
